The values below come from patent publication US20090104257A1 (priority 2007, published 2009).

This test has as its system S pneumoniae (ATCC 6303). As to the kind of experiment: MIC of vancomycin. The test is classed as cell-based.

Each structure is given as a SMILES string.

What is called MIC is the smallest concentration in the dilution series that meets the test's criterion for growth inhibition.

As to `CN[C@H](CC(C)C)C(=O)N[C@H]1C(=O)N[C@@H](CC(N)=O)C(=O)N[C@H]2C(=O)N[C@H]3C(=O)N[C@H](C(=O)N[C@H](C(=O)O)c4cc(O)cc(O)c4-c4cc3ccc4O)[C@H](O)c3ccc(c(Cl)c3)Oc3cc2cc(c3O[C@@H]2O[C@H](CO)[C@@H](O)[C@H](O)[C@H]2O[C@H]2C[C@](C)(N)[C@H](O)[C@H](C)O2)Oc2ccc(cc2Cl)[C@H]1O` [Vancomycin, vancomycin], the minimum inhibitory concentration (MIC) amounted to 0.25 mg/L.
